# Laboratory results taken from patent US6040149A, “Assay for identifying agents which act on the ceramide-activated protein kinase, kinase suppressor of ras, and methods of using said agents” (priority 1997, dated 2000).
# At least one structure is not confirmed: it was looked up by name or label, or the drawing left a doubt.
# Test system: ceramide-activated protein kinase
# Conditions: cholera toxin 10 nM, retinoic acid 0.5 μM, butyrate 0.5 mM
smiles,measurement,value
CCCC(=O)O [butyrate],effect on kinase activity in membranes of stimulated HL-60 cells,not stimulated
